Some of the results follow.
B1: il10ra_site1_normal_mot_8756ee2cf497b5429c717dfc0c0bcfd6_0001_000000186_0001_1_13_H_._HHH_b2_00624_0001_0000300028_0000001_0_af2pred_0001 (protein)
chain: SSSSSEEAEELYRLLREAAELHWEGNPEEARELLEEAEELAKEAGNLNALAVIRFLLEVAGSSSS
B2: il10ra_site1_normal_mot_HHH_b1_05056_000000217_0001_1_20_H_._HHH_b1_07608_0001_0000200011_0000001_0 (protein)
chain: SSSSSSDEVEEEVEELIEEARRVDPRELYRLLQEAVRLAFENRDEELLRELWRVVKELSSSSSSS
B3: il10ra_site1_sap_21_mot_HHH_b2_03262_000000140_0001_43_57_H_._HHH_b2_04959_af2_0001_0000800036_0000001_0_0001 (protein)
chain: SSSSSDVEELIEEVEELLERGDPERALQVLWEAAKLAAERGDKELLRRLAELVREVFQLSSSSSS
B4: il10ra_site1_normal_mot_HHH_b2_07006_000000108_0001_1_19_H_._HHH_b1_05245_af2_0001_0000100003_0000002_0 (protein)
chain: SSSDEEEAERIFEEAEELIKELLEEGDPDRAYEVLRRAIELLLELGDPELARRLSQLFVETSSSS
B5: il10ra_site1_normal_mot_cffd2965c37bdde328b01796c783dcd7_0001_1_af2_000000013_0001_37_51_H_._9006757272de5ee680fdc16be6fae3a9_0001_0001_0000300016_0000002_0 (protein)
chain: DEEELEEELRELLGVPPEEVQEIIRKISELMGIPPEIVIEALIRQIRQAGDPELAVEALEFSARA
B6: il10ra_site1_sap_21_mot_HHH_b2_08127_af2_000000022_0001_1_18_H_._HHH_b1_04352_0001_0000100008_0000002_0_0001 (protein)
chain: SSSSSSSELAERVAELLIKASHISDEEEARKLLEEAREVAEEANNQLLRWQVEWIEERLSSSSSS
B7: il10ra_site1_normal_mot_HHH_b2_00475_000000107_0001_44_57_H_._HHH_b1_06647_af2_0001_0000800045_0000002_0 (protein)
chain: SSSSEEERVVELAFRAVRLLANGNPEEAEKVLEEAKELAEELNDEELQRYVEIALHFVRAHSSSS
B8: il10ra_site1_sap_20_mot_HHH_b1_06746_af2_000000172_0001_40_53_H_._c404ac47ecb0312e2f7dfd42d7b7c6cf_0001_0001_0000100001_0000002_0_0001_af2pred_0001 (protein)
chain: SSSSSSEAEELVRRLVEELNLSEEEKELLEAAARALELQGVSEEEAERLLRLLVRLRENDSSSSS
B9: il10ra_site1_sap_20_mot_HHH_b1_03833_af2_000000159_0001_1_20_H_._6641a0bf45b743e2eabc084d195d318e_0001_0001_0000500009_0000001_0_0001_af2pred_0001 (protein)
chain: SSSSSDDRRFEKAVRLLLRAAKQQKDPETLKLTLRFAEQIAKAANDPELEELVEEVKEELSSSSS
B10: il10ra_site1_normal_mot_HHH_b1_06994_000000193_0001_40_55_H_._HHH_b2_00363_0001_0000100002_0000001_0 (protein)
chain: SSSSDLYEEVKEVIERAVELLREGNPEEAEELLEELAEKLEKLGNFAALFSVEHLARVVGSSSSS
B11: il10ra_site1_normal_mot_2c1a291787c6f40772924d4e9068d803_0001_af2_000000222_0001_34_48_H_._HHH_b1_06580_af2_0001_0000100002_0000001_0_1_af2pred_0001 (protein)
chain: SSSSDLEREALQLAAEAIALAQRRGDEETVRRLFELLIRLYREGDPRLAEELLELAEEVLSSSSS
B12: il10ra_site1_normal_mot_df72e6d168b63c4d22c4171a8daa05df_0001_000000224_0001_53_65_H_._df72e6d168b63c4d22c4171a8daa05df_0001_0001_0000100003_0000003_1 (protein)
chain: SLEELLRELLERGDEEKLRELAEEILELAKQGDPEALELILRIARLMMRDPLVRIVASALTELQY
B13: il10ra_site1_normal_mot_8756ee2cf497b5429c717dfc0c0bcfd6_0001_000000186_0001_1_13_H_._HHH_b2_04426_0001_0000300010_0000001_0_af2pred_0001 (protein)
chain: SSSSSSSYVELLRRIAEADLDRDPEEAEELLEEVKRLAEERNDLIAEVIVEFLEKEVNSSSSSSS
B14: il10ra_site1_normal_mot_HHH_b1_05021_af2_000000076_0001_42_56_H_._HHH_b2_06583_af2_0001_0000500008_0000001_0_af2pred_0001 (protein)
chain: SSSSSDRELVEEAIRILREAAKIDDKEEVEELLEEARKLAEEANNIQLELQIKFIEEMLSSSSSS
B15: il10ra_site1_sap_14_mot_HHH_b2_03117_000000257_0001_1_18_H_._HHH_b1_02472_0001_0000100003_0000002_1_0001 (protein)
chain: SSSSSEEERYVKLTLRFAEWLAENGDPRAAEHFLKAAKDIAENFNNEELKELIEEVHERISSSSS
B16: il10ra_site1_sap_17_mot_HHH_b2_00837_af2_000000287_0001_40_54_H_._HHH_b1_04774_af2_0001_0000100002_0000001_0_0001 (protein)
chain: SSSSSEIARKSVKFMLEAAKQIDDEEYVKLSLMFAEQSARAANDDELERLVEEVREELENSSSSS
B17: il10ra_site1_normal_mot_HHH_b1_06256_000000091_0001_42_58_H_._HHH_b2_07022_0001_0000100009_0000002_0 (protein)
chain: SSSDEAERSLTRFVEQALENAIRAGDEEAARRYLEIAARFLRNAGDHEAVEELEELVEELLSSSS
B18: il10ra_site1_sap_27_mot_HHH_b2_02537_000000065_0001_1_20_H_._HHH_b2_03111_af2_0001_0000200010_0000001_0_0001 (protein)
chain: SSSSSAAEELKEIIEELLRLQREGDEEEFEKLIEEAERELKEKGDQLSLRIIEYILRLFHSSSSS
B19: il10ra_site1_normal_mot_HHH_b1_02997_000000220_0001_39_52_H_._HHH_b2_03513_0001_0000200020_0000002_0_af2pred_0001 (protein)
chain: SSSSDEQRELVELIREAAELHAEGNPEEAERVAREAEELAEELNDEIARIIIEFLLEQISSSSSS
B20: il10ra_site1_sap_23_mot_HHH_b1_03094_000000294_0001_1_20_H_._HHH_b1_06981_0001_0000200012_0000001_0_0001 (protein)
chain: SSSSSQEEELVRAALRIAQQLYENGNPESAKLILEAAEMLAEEIGDEELRELVEEVKEKISSSSS
B21: il10ra_site1_normal_mot_HHH_b1_00999_000000080_0001_41_55_H_._HHH_b1_03194_0001_0000300024_0000001_0 (protein)
chain: SSSSSSDVEELLEELERLLEEGNKEEALRILQEALRHAFRNSDPELLQELWEFARRLGSSSSSSS
B22: il10ra_site1_normal_mot_HHH_b2_08186_000000021_0001_43_56_H_._HHH_b2_04824_af2_0001_0000200004_0000001_0 (protein)
chain: SSSSSDEFARIAQKAVRLAYELGDEETLQLLWELLREYIERGDPELQEELEELLEELERRSSSSS
B23: il10ra_site1_normal_mot_513c16ae44941e68898e0f7c259e5a28_0001_1_000000056_0001_35_50_H_._ems_p1-15H-GBL-16H-GABBL-16H_0041_0001_0001_0002_af2_0001_0000500010_00 … (protein)
chain: SSSSSDVEEKAEEAQELAREKGDEQAERLLKILARAYELGILSEEEAERAIELVIELLEESSSSS
B24: il10ra_site1_sap_19_mot_2b57f6184e3cbf08022d7a5dd7fdd81c_0001_af2_000000095_0001_34_50_H_._HHH_b1_03700_0001_0000300007_0000001_0_0001 (protein)
chain: STEERARIAVRALAEQAGVPEFEVEVSNNSVEVTLNGDDEAVRQAEIAIRAAAFLYRIEIHVETQ
B25: il10ra_site1_normal_mot_2c1a291787c6f40772924d4e9068d803_0001_af2_000000222_0001_34_48_H_._HHH_b1_05888_af2_0001_0000600034_0000001_0 (protein)
chain: SSSSNLEEEIFQLLIEAYLLLQRGDEEEARELLEQAKELAEELNDPALLRAVESLLAKLDSSSSS
B26: il10ra_site1_sap_29_mot_HHH_b2_01447_af2_000000258_0001_1_20_H_._HHH_b1_01009_0001_0000200017_0000001_0_0001 (protein)
chain: SSSSDELVHEFYKLSRELAEAAREGDEERVKELLEELEELAEKANSPLLKFIVRLLEEDNSSSSS
B27: il10ra_site1_sap_25_mot_HHH_b2_08186_000000021_0001_43_56_H_._HHH_b2_07188_0001_0001100123_0000001_0_0001 (protein)
chain: SSSSSSDEVEEEAEELLEELERRGNRAAVFLLRQALEALKLSGDPTAKEILESMIRIASSSSSSS
B28: il10ra_site1_sap_23_mot_HHH_b1_04771_000000013_0001_40_56_H_._HHH_b1_02811_0001_0000100005_0000001_0_0001_af2pred_0001 (protein)
chain: SSSSDEDRKAVELTLRFMRFLAKHGDREAVEYFFRAAKELIERAGDEELEEELEELYEELQSSSS
B29: il10ra_site1_normal_mot_HHH_b1_04771_000000013_0001_40_56_H_._HHH_b2_07574_af2_0001_0000400014_0000001_0 (protein)
chain: SSSSSSTKAVELSLEAFRAALRGNPEEARELLEEAEQIAEEEGDERTLRIIRDLLKALSSSSSSS
B30: il10ra_site1_sap_19_mot_HHH_b1_08697_af2_000000298_0001_1_18_H_._HHH_b2_01157_0001_0000100005_0000001_0_0001_af2pred_0001 (protein)
chain: SSSSNEEVKQLVELIREAAELHHKGNREEAKEVLEEAKELAEELGNPLAELLIEFLERQNSSSSS
B31: il10ra_site1_sap_18_mot_HHH_b2_07144_000000289_0001_1_18_H_._HHH_b1_08370_0001_0000200016_0000001_0_0001 (protein)
chain: SSSSDLAHRVYKLSRKALELRARGDPEEAERLLEEALELLEENNNRAQLRVVRMILERLGSSSSS
B32: il10ra_site1_normal_mot_HHH_b1_05056_000000217_0001_1_20_H_._HHH_b2_07116_0001_0000300030_0000001_0 (protein)
chain: SSSSSDEEIEEEVEELLEQARHIEDPKEVAELLLEAAQLAFELQDPELLRLVWRVVQELASSSSS
B33: il10ra_site1_normal_mot_HHH_b1_01821_000000158_0001_23_39_H_._HHH_b2_00894_af2_0001_0000100002_0000001_0 (protein)
chain: SSSSDEAEEEARELLERLEEALEEGDQEKAAQIAQEAVRAAFRAGDPELLQAIWELFRRFISSSS
B34: il10ra_site1_sap_15_mot_HHH_b2_03328_af2_000000127_0001_1_19_H_._891b8491a18eb46c9ad5c1702b87f9cc_0001_0001_0000100002_0000002_0_0001 (protein)
chain: SSSSDERFELVRKVIEEAIELWEQGNEEEARELIEEALEELRELGDWVAVKALEHLLRVLSSSSS
B35: il10ra_site1_sap_11_mot_HHH_b2_02267_000000141_0001_1_20_H_._HHH_b1_06352_af2_0001_0000500026_0000001_0_0001 (protein)
chain: SSSSTDEAFERVKELVKRAVELARNGNPEEAEKLLEEARELAEESNTMALRWAVEHLLRLLSSSS
B36: il10ra_site1_normal_mot_HHH_b2_06311_000000217_0001_1_16_H_._HHH_b2_06308_0001_0000300048_0000001_0 (protein)
chain: SSSSDEELERYVRQALHFIKALAKDNEEAARALARFLLQTVEEQGDEELFEIVEKLLEELSSSSS
B37: il10ra_site1_sap_23_mot_ems_3hM_250_000000141_0001_1_18_H_._230fcc1677eb0c512f32732c1a7e1c83_0001_af2_0001_0000900015_0000001_0_0001 (protein)
chain: SSSSDDYEEVKRLAEEASKLLRNGDPEEAEELLEELEEKLREKGNMDALFAVEHMLRVVRNSSSS

target: il10ra, Q13651; assay: yeast display titration

Apparent Kd, inactive:
B1 no binding seen
B2 no binding seen
B3 no binding seen
B4 no binding seen
B5 no binding seen
B6 no binding seen
B7 no binding seen
B8 no binding seen
B9 no binding seen
B10 no binding seen
B11 no binding seen
B12 no binding seen
B13 no binding seen
B14 no binding seen
B15 no binding seen
B16 no binding seen
B17 > 1150 nM
B18 no binding seen
B19 no binding seen
B20 no binding seen
B21 no binding seen
B22 no binding seen
B23 no binding seen
B24 no binding seen
B25 no binding seen
B26 no binding seen
B27 no binding seen
B28 no binding seen
B29 no binding seen
B30 no binding seen
B31 no binding seen
B32 no binding seen
B33 no binding seen
B34 no binding seen
B35 no binding seen
B36 no binding seen
B37 no binding seen

Pulled one by one from the entries so far:
Apparent Kd, inactive:
B19 no binding seen
B24 no binding seen
B5 no binding seen
